Source: PubChem BioAssay AID1159592 (NIAID, 2016)

Assay: 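Which core TLR components make p65 move nuclear in R848-treated mouse macrophages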
Cell system: RAW264.7 macrophages from mouse bearing reporters for p65 (GFP) and the Tnf promoter (mCherry)
Reagent: single siRNA against mouse genes
Timing: 48 to 72 hours after siRNA transfection
Challenge: R848 TLR ligand for 40 minutes before fixation; dose not given
Read-out: 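Nuclear over cytoplasmic GFP-p65 signal imaged 40 minutes after R848, plate-normalised by median and MAD, given as robust z versus negative controls, mean of replicates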
Reading the numbers: NF-kB translocation z-score: higher = more p65 moved into the nucleus than in negative-control wells
Active means: 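Active when the replicate-mean z lies above 1.5 or below -1.5; the depositor also grades absolute z in steps of 1, 1.5, 2 and 2.5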
Meaning of the calls: active = strong change, either direction; inactive = little change
This is a random part of 756 deposited reagents. In the full data, 147 (19%) were called active. 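Active covers both loss and gain of p65 entry; negative z means weaker NF-kB activation, positive means more nuclear p65.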 Reagents against one gene are numbered here. Not given: the amount of reagent.

gene | reagent no. | NF-kB translocation z-score, replicate mean | call
Myd88 | 1 | -2.36 | active
Myd88 | 2 | -3.87 | active
Myd88 | 3 | -3.34 | active
Myd88 | 4 | -4.16 | active
Myd88 | 5 | -4.44 | active
Myd88 | 6 | -0.616 | inactive
Ifnb1 | 1 | 1.12 | inactive
Ifnb1 | 2 | -0.522 | inactive
Ifnb1 | 3 | 1.27 | inactive
Ifnb1 | 4 | 0.107 | inactive
Ifnb1 | 5 | -0.276 | inactive
Ifnb1 | 6 | -0.828 | inactive
Ifnar2 | 1 | 3.59 | active
Ifnar2 | 2 | 0.41 | inactive
Ifnar2 | 3 | 1.51 | active
Ifnar2 | 4 | 0.176 | inactive
Ifnar2 | 5 | -0.296 | inactive
Ifnar2 | 6 | -2.32 | active
Nfkb2 | 1 | 0.42 | inactive
Nfkb2 | 2 | -0.333 | inactive
Nfkb2 | 3 | 0.729 | inactive
Nfkb2 | 4 | 1.17 | inactive
Nfkb2 | 5 | -1.66 | active
Nfkb2 | 6 | -0.794 | inactive
Dusp1 | 1 | 0.43 | inactive
Dusp1 | 2 | 1.61 | active
Dusp1 | 3 | -0.178 | inactive
Dusp1 | 4 | -0.332 | inactive
Dusp1 | 5 | -0.122 | inactive
Dusp1 | 6 | -0.425 | inactive
Irf3 | 1 | -1.05 | inactive
Irf3 | 2 | 1.77 | active
Irf3 | 3 | -2.69 | active
Irf3 | 4 | -0.617 | inactive
Irf3 | 5 | 0.294 | inactive
Irf3 | 6 | -0.188 | inactive
Mapkapk2 | 1 | -2.24 | active
Mapkapk2 | 2 | 1.01 | inactive
Mapkapk2 | 3 | -0.53 | inactive
Mapkapk2 | 4 | -0.42 | inactive
Mapkapk2 | 5 | 0.725 | inactive
Mapkapk2 | 6 | 1.42 | inactive
Casp8 | 1 | 0.516 | inactive
Casp8 | 2 | -1.68 | active
Casp8 | 3 | -1.14 | inactive
Casp8 | 4 | -0.613 | inactive
Casp8 | 5 | -2.24 | active
Casp8 | 6 | 0.266 | inactive
Pik3r5 | 1 | 0.317 | inactive
Pik3r5 | 2 | -0.0164 | inactive
Pik3r5 | 3 | -1.36 | inactive
Pik3r5 | 4 | -1.91 | active
Pik3r5 | 5 | -2.54 | active
Pik3r5 | 6 | -0.214 | inactive
Mapk10 | 1 | 0.908 | inactive
Mapk10 | 2 | -0.118 | inactive
Mapk10 | 3 | 0.00101 | inactive
Mapk10 | 4 | 0.526 | inactive
Mapk10 | 5 | -0.332 | inactive
Mapk10 | 6 | 0.0428 | inactive
Ly96 | 1 | -0.0719 | inactive
Ly96 | 2 | 0.371 | inactive
Ly96 | 3 | 0.12 | inactive
Ly96 | 4 | -0.0885 | inactive
Ly96 | 5 | -0.636 | inactive
Ly96 | 6 | 0.0551 | inactive
Btk | 1 | -0.474 | inactive
Btk | 2 | 0.878 | inactive
Btk | 3 | -1.82 | active
Btk | 4 | -1.75 | active
Btk | 5 | -2.17 | active
Btk | 6 | -1.34 | inactive
Il12a | 1 | -0.477 | inactive
Il12a | 2 | -0.143 | inactive
Il12a | 3 | -0.789 | inactive
Il12a | 4 | -0.71 | inactive
Il12a | 5 | -1.09 | inactive
Il12a | 6 | 0.0711 | inactive
Nfkb1 | 1 | 1.15 | inactive
Nfkb1 | 2 | -0.168 | inactive
Nfkb1 | 3 | 0.178 | inactive
Nfkb1 | 4 | 0.888 | inactive
Nfkb1 | 5 | -0.156 | inactive
Nfkb1 | 6 | 0.621 | inactive
Il12b | 1 | -0.741 | inactive
Il12b | 2 | 2.05 | active
Il12b | 3 | -0.088 | inactive
Il12b | 4 | -0.231 | inactive
Il12b | 5 | -1.2 | inactive
Il12b | 6 | -0.123 | inactive
Tradd | 1 | -0.392 | inactive
Tradd | 2 | -0.29 | inactive
Tradd | 3 | -1.55 | active
Tradd | 4 | -1.14 | inactive
Tradd | 5 | -0.207 | inactive
Tradd | 6 | 1.44 | inactive
Arf6 | 1 | -0.334 | inactive
Arf6 | 2 | -0.705 | inactive
Arf6 | 3 | -1.07 | inactive
Arf6 | 4 | -0.651 | inactive
Arf6 | 5 | 1.32 | inactive
Arf6 | 6 | 0.254 | inactive
Pik3r1 | 1 | -2.09 | active
Pik3r1 | 2 | -1.06 | inactive
Pik3r1 | 3 | -0.0748 | inactive
Pik3r1 | 4 | -0.0185 | inactive
Pik3r1 | 5 | -1.93 | active
Pik3r1 | 6 | -0.476 | inactive
Akt3 | 1 | 0.214 | inactive
Akt3 | 2 | -0.348 | inactive
Akt3 | 3 | -0.642 | inactive
Akt3 | 4 | -1.63 | active
Akt3 | 5 | -0.00428 | inactive
Akt3 | 6 | -1.75 | active
Tab2 | 1 | -1.23 | inactive
Tab2 | 2 | -0.801 | inactive
Tab2 | 3 | 0.114 | inactive
Tab2 | 4 | -0.173 | inactive
Tab2 | 5 | -0.0143 | inactive
Tab2 | 6 | -0.105 | inactive
Traf6 | 1 | -2.53 | active
Traf6 | 2 | -2.58 | active
Traf6 | 3 | -2.88 | active
Traf6 | 4 | -1.65 | active
Traf6 | 5 | -2.1 | active
Traf6 | 6 | -2.46 | active
Atf7 | 1 | -1.38 | inactive
Atf7 | 2 | -1.82 | active
Atf7 | 3 | -0.0757 | inactive
Atf7 | 4 | 0.407 | inactive
Atf7 | 5 | -0.406 | inactive
Atf7 | 6 | -1.04 | inactive
Tank | 1 | -0.553 | inactive
Tank | 2 | 4.18 | active
Tank | 3 | 0.828 | inactive
Tank | 4 | 1.54 | active
Tank | 5 | 2.84 | active
Tank | 6 | 0.992 | inactive
Tlr8 | 1 | 0.649 | inactive
Tlr8 | 2 | 0.711 | inactive
Tlr8 | 3 | -0.319 | inactive
Tlr8 | 4 | 0.652 | inactive
Tlr8 | 5 | 0.0993 | inactive
Tlr8 | 6 | -0.989 | inactive

Look-ups from the entries so far:
Result of Pik3r1 #6 under “call”: inactive
Result of Akt3 #1 in “NF-kB translocation z-score, replicate mean”: 0.214
Result for Ifnb1 #3 under “call”: inactive
Under “call”, Tab2 #3 shows inactive
For “NF-kB translocation z-score, replicate mean”, Ly96 #3 reads 0.12
Casp8 #4, NF-kB translocation z-score, replicate mean = -0.613
